Test results published in the supplement of paper PMC10849652.
The other results are listed elsewhere or left out.

Amino acid sequences for entries named in this document (tags omitted). A change or cut given only in a name is not applied to a line headed by its entry.
UniProt Q9BSF8: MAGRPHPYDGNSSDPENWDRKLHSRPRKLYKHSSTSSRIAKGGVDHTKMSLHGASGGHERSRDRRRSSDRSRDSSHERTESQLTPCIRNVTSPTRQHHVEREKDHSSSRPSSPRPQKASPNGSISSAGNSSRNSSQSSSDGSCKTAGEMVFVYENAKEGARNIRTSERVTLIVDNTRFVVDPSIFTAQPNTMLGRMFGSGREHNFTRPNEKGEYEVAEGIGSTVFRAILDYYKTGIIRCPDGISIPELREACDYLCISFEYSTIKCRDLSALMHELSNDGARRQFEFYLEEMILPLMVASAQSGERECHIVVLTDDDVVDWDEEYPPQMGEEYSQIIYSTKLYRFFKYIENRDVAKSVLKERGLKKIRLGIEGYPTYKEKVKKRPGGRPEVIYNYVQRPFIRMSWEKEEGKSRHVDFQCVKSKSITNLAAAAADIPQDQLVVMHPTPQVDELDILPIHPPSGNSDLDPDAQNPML
UniProt Q96RK4: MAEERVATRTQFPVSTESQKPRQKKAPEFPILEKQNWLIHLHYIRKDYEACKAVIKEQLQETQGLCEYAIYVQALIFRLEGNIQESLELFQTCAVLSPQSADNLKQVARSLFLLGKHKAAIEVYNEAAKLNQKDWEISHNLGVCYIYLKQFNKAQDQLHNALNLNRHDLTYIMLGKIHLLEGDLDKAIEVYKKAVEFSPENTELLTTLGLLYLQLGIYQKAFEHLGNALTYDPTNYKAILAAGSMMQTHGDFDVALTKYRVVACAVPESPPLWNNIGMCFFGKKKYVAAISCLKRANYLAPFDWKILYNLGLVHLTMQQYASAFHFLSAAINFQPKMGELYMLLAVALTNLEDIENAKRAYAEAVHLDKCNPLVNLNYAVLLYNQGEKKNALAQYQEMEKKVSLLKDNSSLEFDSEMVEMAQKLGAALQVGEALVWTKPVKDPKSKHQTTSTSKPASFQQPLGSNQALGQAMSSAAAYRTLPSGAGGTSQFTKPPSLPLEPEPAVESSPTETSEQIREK
UniProt O14503, whole entry, looked up: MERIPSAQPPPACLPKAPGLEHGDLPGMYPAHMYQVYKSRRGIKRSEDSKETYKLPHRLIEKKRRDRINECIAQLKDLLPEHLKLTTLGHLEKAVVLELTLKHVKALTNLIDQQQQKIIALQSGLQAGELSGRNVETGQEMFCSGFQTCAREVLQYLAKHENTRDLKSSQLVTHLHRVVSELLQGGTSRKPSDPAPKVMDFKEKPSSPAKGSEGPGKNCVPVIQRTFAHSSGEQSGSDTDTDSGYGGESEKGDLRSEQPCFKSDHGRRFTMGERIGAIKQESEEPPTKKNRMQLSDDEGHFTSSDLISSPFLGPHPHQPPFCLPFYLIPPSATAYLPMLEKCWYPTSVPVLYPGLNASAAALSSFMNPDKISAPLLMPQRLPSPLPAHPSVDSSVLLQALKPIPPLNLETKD
UniProt Q9UQB8: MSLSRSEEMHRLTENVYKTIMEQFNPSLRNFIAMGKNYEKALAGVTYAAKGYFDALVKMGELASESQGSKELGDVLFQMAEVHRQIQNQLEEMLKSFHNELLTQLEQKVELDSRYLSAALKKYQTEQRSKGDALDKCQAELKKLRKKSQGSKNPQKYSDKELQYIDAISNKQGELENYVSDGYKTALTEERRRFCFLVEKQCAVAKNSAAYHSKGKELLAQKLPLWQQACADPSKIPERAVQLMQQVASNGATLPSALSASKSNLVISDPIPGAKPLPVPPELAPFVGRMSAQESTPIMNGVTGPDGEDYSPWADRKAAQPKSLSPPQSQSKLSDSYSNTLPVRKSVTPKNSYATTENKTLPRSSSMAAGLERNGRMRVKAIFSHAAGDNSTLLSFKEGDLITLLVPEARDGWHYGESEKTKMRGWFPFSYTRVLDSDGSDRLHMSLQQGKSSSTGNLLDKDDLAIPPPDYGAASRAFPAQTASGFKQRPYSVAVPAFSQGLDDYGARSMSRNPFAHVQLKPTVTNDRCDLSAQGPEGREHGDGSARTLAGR
UniProt Q96Q07: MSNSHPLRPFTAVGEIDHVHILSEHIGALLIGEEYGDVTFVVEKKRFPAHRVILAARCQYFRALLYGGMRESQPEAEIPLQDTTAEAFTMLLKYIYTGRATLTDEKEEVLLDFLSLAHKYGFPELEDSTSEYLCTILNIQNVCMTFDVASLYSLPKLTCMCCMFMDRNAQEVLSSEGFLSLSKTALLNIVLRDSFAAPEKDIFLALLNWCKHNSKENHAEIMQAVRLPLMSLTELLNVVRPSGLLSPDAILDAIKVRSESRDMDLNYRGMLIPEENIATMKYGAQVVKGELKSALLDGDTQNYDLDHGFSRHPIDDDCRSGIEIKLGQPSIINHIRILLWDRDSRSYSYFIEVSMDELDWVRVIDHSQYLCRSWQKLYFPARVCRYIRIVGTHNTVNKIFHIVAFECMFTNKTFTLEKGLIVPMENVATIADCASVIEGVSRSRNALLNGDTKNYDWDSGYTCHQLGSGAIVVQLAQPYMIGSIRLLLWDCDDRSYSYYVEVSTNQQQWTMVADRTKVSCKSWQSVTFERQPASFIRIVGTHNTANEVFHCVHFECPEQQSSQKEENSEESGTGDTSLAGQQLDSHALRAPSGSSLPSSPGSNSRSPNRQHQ
UniProt Q8WY36: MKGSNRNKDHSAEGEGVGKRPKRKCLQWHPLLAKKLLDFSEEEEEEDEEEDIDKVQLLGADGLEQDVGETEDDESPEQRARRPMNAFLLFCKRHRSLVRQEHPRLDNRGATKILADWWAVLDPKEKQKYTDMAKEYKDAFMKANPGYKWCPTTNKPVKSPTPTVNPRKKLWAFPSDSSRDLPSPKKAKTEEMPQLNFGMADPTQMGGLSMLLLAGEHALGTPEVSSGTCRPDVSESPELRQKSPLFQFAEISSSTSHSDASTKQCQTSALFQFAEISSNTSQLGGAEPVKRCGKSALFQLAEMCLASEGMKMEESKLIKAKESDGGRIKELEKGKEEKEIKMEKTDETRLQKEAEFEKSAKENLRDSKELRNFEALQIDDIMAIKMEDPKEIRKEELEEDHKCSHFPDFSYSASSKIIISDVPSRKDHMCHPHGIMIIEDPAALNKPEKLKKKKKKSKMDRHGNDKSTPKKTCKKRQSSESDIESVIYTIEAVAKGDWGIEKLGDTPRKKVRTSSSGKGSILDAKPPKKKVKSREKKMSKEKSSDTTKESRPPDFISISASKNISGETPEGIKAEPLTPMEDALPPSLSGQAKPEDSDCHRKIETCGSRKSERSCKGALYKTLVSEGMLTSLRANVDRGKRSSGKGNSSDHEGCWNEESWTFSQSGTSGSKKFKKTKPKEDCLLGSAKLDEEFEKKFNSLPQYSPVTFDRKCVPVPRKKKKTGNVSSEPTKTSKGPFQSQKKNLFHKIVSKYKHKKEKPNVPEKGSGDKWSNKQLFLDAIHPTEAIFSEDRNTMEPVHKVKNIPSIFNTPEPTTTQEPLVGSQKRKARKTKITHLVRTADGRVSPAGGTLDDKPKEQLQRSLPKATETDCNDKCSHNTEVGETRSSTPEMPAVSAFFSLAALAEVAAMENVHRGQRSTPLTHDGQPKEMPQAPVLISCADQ
UniProt Q1RMZ1: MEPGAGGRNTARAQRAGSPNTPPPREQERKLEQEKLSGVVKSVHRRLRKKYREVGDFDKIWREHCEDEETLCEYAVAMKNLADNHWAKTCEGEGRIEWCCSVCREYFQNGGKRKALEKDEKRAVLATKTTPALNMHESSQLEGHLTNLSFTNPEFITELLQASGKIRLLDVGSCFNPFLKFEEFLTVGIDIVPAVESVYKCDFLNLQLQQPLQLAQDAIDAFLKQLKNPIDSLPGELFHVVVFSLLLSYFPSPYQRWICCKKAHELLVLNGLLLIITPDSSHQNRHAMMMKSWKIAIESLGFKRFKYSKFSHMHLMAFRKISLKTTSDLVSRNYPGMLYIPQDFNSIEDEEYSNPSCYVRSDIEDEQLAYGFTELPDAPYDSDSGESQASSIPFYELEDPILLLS
UniProt O60513: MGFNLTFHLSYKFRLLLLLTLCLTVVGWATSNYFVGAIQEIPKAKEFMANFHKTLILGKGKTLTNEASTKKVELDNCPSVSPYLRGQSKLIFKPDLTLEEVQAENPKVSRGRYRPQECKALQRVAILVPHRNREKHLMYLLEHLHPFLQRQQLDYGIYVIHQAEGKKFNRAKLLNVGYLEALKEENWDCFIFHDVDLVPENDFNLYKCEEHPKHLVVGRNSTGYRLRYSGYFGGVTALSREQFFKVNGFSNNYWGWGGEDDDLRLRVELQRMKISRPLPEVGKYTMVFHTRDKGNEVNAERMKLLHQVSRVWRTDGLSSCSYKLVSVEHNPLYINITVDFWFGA
UniProt Q96DR5: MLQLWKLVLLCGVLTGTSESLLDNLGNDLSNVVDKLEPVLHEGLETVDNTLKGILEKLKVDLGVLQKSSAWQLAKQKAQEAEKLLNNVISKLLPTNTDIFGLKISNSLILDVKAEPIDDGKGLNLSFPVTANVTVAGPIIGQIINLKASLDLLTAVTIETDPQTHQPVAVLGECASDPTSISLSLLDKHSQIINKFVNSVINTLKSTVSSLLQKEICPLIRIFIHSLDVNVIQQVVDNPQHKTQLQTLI
UniProt Q96IK1: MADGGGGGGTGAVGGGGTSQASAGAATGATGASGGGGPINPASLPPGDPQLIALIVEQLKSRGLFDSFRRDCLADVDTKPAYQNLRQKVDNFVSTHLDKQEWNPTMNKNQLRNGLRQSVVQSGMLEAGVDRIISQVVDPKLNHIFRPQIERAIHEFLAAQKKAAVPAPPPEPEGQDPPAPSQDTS
UniProt O43505: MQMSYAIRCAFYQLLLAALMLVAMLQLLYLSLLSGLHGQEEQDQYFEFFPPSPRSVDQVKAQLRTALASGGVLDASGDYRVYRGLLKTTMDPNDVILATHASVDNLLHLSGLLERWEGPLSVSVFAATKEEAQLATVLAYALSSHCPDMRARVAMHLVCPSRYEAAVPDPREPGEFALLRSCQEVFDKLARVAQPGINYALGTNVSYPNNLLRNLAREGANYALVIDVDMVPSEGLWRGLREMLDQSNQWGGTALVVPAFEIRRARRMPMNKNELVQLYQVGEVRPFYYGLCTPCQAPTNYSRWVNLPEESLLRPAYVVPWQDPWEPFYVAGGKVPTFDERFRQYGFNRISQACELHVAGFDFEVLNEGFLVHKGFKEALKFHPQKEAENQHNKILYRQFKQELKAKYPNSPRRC
UniProt P13497: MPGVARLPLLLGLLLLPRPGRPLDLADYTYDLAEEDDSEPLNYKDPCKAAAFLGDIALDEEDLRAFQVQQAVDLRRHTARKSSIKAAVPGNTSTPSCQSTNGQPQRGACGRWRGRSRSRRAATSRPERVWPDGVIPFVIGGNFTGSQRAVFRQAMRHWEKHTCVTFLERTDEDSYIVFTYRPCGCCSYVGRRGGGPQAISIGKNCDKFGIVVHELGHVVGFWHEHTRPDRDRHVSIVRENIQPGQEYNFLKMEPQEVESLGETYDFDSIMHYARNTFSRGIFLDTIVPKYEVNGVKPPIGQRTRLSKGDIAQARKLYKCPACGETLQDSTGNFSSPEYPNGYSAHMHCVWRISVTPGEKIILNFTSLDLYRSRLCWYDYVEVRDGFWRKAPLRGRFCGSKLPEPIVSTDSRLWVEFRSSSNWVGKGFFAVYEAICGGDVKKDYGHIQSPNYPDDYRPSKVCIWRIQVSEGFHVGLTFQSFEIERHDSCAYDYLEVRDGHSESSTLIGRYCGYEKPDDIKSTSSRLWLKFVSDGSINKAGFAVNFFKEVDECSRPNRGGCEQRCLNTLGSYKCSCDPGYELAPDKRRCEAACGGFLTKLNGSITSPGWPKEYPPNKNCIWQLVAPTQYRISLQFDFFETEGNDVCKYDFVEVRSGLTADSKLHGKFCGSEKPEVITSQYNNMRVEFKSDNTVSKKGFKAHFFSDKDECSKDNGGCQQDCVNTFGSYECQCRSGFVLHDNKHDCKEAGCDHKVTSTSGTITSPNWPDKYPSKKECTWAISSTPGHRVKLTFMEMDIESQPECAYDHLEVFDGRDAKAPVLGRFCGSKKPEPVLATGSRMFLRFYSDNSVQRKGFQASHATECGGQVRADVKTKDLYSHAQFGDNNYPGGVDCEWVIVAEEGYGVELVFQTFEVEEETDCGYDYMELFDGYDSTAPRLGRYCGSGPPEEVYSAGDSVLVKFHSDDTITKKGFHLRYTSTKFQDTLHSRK
UniProt O60238, whole entry, looked up: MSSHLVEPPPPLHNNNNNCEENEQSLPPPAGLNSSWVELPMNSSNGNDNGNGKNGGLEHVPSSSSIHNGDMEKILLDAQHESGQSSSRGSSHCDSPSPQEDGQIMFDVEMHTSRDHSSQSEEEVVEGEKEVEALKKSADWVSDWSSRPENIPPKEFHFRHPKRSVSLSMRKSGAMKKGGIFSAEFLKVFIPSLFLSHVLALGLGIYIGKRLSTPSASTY
UniProt P62324: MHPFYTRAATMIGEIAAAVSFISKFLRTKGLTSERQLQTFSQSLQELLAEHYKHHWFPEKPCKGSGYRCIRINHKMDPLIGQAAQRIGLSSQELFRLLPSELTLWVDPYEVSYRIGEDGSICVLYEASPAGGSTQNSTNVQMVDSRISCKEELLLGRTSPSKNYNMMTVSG

How the values were obtained:
Test in all cases: log2 fold change, soluble protein after heating vs DMSO (PISA); higher = thermal stabilisation; K562 lysate, 10 uM; active = over 0.2 and 3.5 SD of the protein, either way, in both replicates (recomputed)
[1] = compound: CC[C@@H]1C(=O)N(C)c2cnc(Nc3ccc(C(=O)NC4CCN(C)CC4)cc3OC)nc2N1C1CCCC1
In short: (§1)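 Soluble protein was defined as the supernatant remaining after 21,000xg for 90 min, following pooling of heated aliquots and adjustment to 0.5% NP-40 at 4°C. Before that, crude K562 extract at 1 mg/mL protein in PBS pH 7.4 with 1 mM MgCl2 was treated with 10 μM compound for 30 min and heated for 3 min across 48°C-58°C. Quantification used TMTpro 16plex LC-MS/MS with channel sums equalised, and values are log-two fold changes in thermal stability relative to solvent controls from duplicates.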

[2] = compound: CNC(=O)C1=CC=CC=C1NC2=NC(=NC=C2Cl)NC3=C(C=C(C=C3)N4CCOCC4)OC
In short: as §1

encorafenib = compound: COC(=O)N[C@@H](C)CNc1nccc(-c2cn(C(C)C)nc2-c2cc(Cl)cc(NS(C)(=O)=O)c2F)n1 [encorafenib]
In short: as §1

[3] = compound: COC(=O)[C@H](CCSC)NC(=O)C1=C(C=C(C=C1)NC[C@H](CS)N)C2=CC=CC=C2
In short: as §1

[4] = compound: CCCS(=O)(=O)Nc1ccc(F)c(C(=O)c2c[nH]c3ncc(Cl)cc23)c1F
In short: as §1

volasertib = compound: CC[C@@H]1C(=O)N(C)c2cnc(Nc3ccc(C(=O)N[C@H]4CC[C@H](N5CCN(CC6CC6)CC5)CC4)cc3OC)nc2N1C(C)C [volasertib]
In short: as §1

[5] = compound: CCn1c(C(=O)N(C2CC2)C2CC2)cc2c3c(ncn3C)c(Nc3cc(C)n(C)n3)nc21
In short: as §1

[6] = compound: CCn1cc(-c2ccnc3[nH]c(-c4cccc(CN(C)C)c4)cc23)c(-c2ccc(NC(=O)N(C)C)cc2)n1
In short: as §1

[7] = compound: CN1CCC(CNc2ccc3ncc(-c4cccc(OC(F)(F)F)c4)n3n2)CC1
In short: as §1

sotrastaurin = compound: CN1CCN(c2nc(C3=C(c4c[nH]c5ccccc45)C(=O)NC3=O)c3ccccc3n2)CC1 [sotrastaurin]
In short: as §1

alvocidib = compound: CN1CC[C@H](c2c(O)cc(O)c3c(=O)cc(-c4ccccc4Cl)oc23)[C@H](O)C1 [alvocidib]
In short: as §1

Tubastatin A = compound: CN1CCc2c(c3ccccc3n2Cc2ccc(C(=O)NO)cc2)C1 [Tubastatin A]
In short: as §1

alisertib = compound: COc1cc(Nc2ncc3c(n2)-c2ccc(Cl)cc2C(c2c(F)cccc2OC)=NC3)ccc1C(=O)O [alisertib]
In short: as §1

[8] = compound: COc1cc2nc(-c3cc(F)ccc3O)nc(N[C@@H]3CNC[C@H]3C(C)(C)O)c2cc1OC
In short: as §1

gefitinib = compound: COc1cc2ncnc(Nc3ccc(F)c(Cl)c3)c2cc1OCCCN1CCOCC1 [gefitinib]
In short: as §1

barasertib = compound: CCN(CCCOc1ccc2c(Nc3cc(CC(=O)Nc4cccc(F)c4)[nH]n3)ncnc2c1)CCOP(=O)(O)O [barasertib]
In short: as §1

saracatinib = compound: CN1CCN(CCOc2cc(OC3CCOCC3)c3c(Nc4c(Cl)ccc5c4OCO5)ncnc3c2)CC1 [saracatinib]
In short: as §1

[9] = compound: CNc1nc(-c2ccc3c(N)n[nH]c3c2)cc(N2C[C@@H](C(=O)NC3CCCCC3)CC[C@H]2C)n1
In short: as §1

Measured: log2 fold change

BANP isoform 7 (UniProt Q8N9N5)
inactive: [1] 0.02 | [2] 0.2 | encorafenib 0.198 | [3] -0.069

BAZ2A (UniProt Q9UIF9)
inactive: [4] -0.25 | [1] 0.024 | volasertib -0.081 | [5] -0.021 | [6] -0.18 | [7] -0.025 | sotrastaurin -0.016 | alvocidib -0.035 | Tubastatin A -0.071 | [2] 0.102 | encorafenib 0.082 | [3] 0.224 | alisertib -0.131 | [8] 0.202 | gefitinib 0.072

BSCL2 isoform 4 (UniProt Q96G97)
inactive: [4] 0.092 | volasertib 0.019 | [5] 0.021 | [6] -0.07 | [7] 0.061 | sotrastaurin 0.133 | alvocidib -0.015 | Tubastatin A -0.1 | [2] -0.093 | alisertib -0.087 | [8] -0.1 | gefitinib 0.075

BPIFB1 (UniProt Q8TDL5)
inactive: [1] -0.938 | [6] 0.843 | [7] -1.06 | alvocidib -0.301 | encorafenib 0.129 | [3] 0.378 | alisertib 0.012 | gefitinib -0.008

BICRAL (UniProt Q6AI39)
inactive: [1] 0.29 | [5] -0.108 | Tubastatin A 0.198 | encorafenib -0.004 | [3] -0.142

BTBD10 isoform 2 (UniProt Q9BSF8)
inactive: barasertib 0.353 | saracatinib -0.098 | sotrastaurin -0.025 | [9] 0.074 | alisertib 0.063 | gefitinib -0.058

BBS4 isoform 2 (UniProt Q96RK4)
inactive: [6] -0.131 | [7] 0.059 | saracatinib 0.139 | alvocidib -0.022 | [9] 0.037 | alisertib 0.139 | gefitinib 0.192

Reprinted at random: 2 entries already listed.
BICRAL (UniProt Q6AI39)
inactive: [1] 0.29 | [5] -0.108 | Tubastatin A 0.198 | encorafenib -0.004 | [3] -0.142

BPIFB1 (UniProt Q8TDL5)
inactive: [1] -0.938 | [6] 0.843 | [7] -1.06 | alvocidib -0.301 | encorafenib 0.129 | [3] 0.378 | alisertib 0.012 | gefitinib -0.008

Continued.

BHLHE40 (UniProt O14503)
inactive: [5] 0.075 | sotrastaurin 0.101 | Tubastatin A -0.229 | [2] -0.04

BAIAP2 isoform 6 (UniProt Q9UQB8)
inactive: [6] 0.132 | [7] 0.125 | sotrastaurin -0.007 | alvocidib -0.027

BAHD1 (UniProt Q8TBE0)
inactive: barasertib -0.102 | [5] 0.122 | [6] -0.007 | [7] -0.076 | saracatinib 0.088 | sotrastaurin 0.04 | alvocidib -0.021 | Tubastatin A 0.011 | [9] 0.061

BIN3 (UniProt Q9NQY0)
inactive: barasertib 0.126 | [5] 0.053 | [6] 0.201 | [7] 0.051 | saracatinib 0.082 | sotrastaurin 0.098 | alvocidib -0.018 | Tubastatin A 0.081 | [2] 0.103 | [9] -0.189

BLVRA (UniProt C9J1E1)
inactive: [4] -0.083 | volasertib -0.018 | alisertib -0.052 | [8] 0.022 | gefitinib -0.3

B4GALNT4 (UniProt Q76KP1)
inactive: sotrastaurin 0.013

BTBD9 (UniProt Q96Q07)
inactive: [4] 0.214 | volasertib -0.079 | [2] -0.104 | [8] 0.144

BBX (UniProt Q8WY36)
inactive: [1] -0.247 | saracatinib -0.065 | sotrastaurin 0.095 | [2] 0.178 | [9] 0.168 | encorafenib 0.112 | [3] -0.573 | alisertib -0.158 | gefitinib 0.147

BTBD2 (UniProt Q9BX70)
inactive: [1] -0.027 | [6] 0.082 | [7] -0.161 | sotrastaurin 0.066 | alvocidib -0.342 | [2] 0.102 | encorafenib 0.056 | [3] -0.013

BMT2 (UniProt Q1RMZ1)
inactive: [6] 0.004 | [7] 0.096 | alvocidib -0.004 | alisertib 0.025 | gefitinib -0.27

B4GALT4 (UniProt O60513)
inactive: [6] 0.009 | [7] -0.071 | saracatinib 0.116 | alvocidib 0.055 | [2] 0.312 | [9] -0.094

BDP1 (UniProt A6H8Y1)
inactive: [1] -0.006 | [5] -0.012 | sotrastaurin 0.008 | Tubastatin A 0.104 | encorafenib 0.013 | [3] 0.033

BPIFA2 (UniProt Q96DR5)
inactive: barasertib -1.07 | [1] -0.276 | [6] -0.065 | [7] -0.33 | alvocidib -0.074 | [2] -0.032 | encorafenib 0.275 | [3] 0.026 | alisertib 0.291 | gefitinib -0.296

BTG3 isoform 2 (UniProt Q14201)
inactive: [1] -0.098 | [2] -0.013 | encorafenib -0.288 | [3] 0.135

BEX4 (UniProt Q9NWD9)
inactive: [5] 0.124 | saracatinib 0.079 | sotrastaurin -0.064 | Tubastatin A -0.038 | [2] 0.03 | [9] -0.079 | alisertib -0.138 | gefitinib 0.032

BOD1 (UniProt Q96IK1)
inactive: [4] -0.313 | volasertib -0.071 | [5] -0.04 | [6] 0.181 | [7] -0.137 | saracatinib -0.401 | sotrastaurin -0.008 | alvocidib 0.035 | Tubastatin A 0.056 | [9] -0.221 | [8] 0.084

B4GAT1 (UniProt O43505)
inactive: barasertib 0.049 | [5] -0.129 | saracatinib 0.011 | sotrastaurin 0.126 | Tubastatin A -0.234 | [2] -0.028 | [9] 0.04 | alisertib 0.073 | gefitinib 0.28

BRD9 (UniProt Q9H8M2)
inactive: [1] -0.23 | [5] 0.014 | [6] 0.228 | [7] 0.046 | alvocidib 0.207 | Tubastatin A -0.03 | [2] 0.185 | encorafenib 0.199 | [3] 0.058 | alisertib 0.113 | gefitinib -0.028

BRWD1 (UniProt Q9NSI6)
inactive: [5] 0.074 | saracatinib 0.044 | sotrastaurin 0.075 | Tubastatin A 0.041 | [9] 0.075

BMP1 (UniProt P13497)
inactive: [5] -0.078 | Tubastatin A 0.12

BCL7A (UniProt Q4VC05)
inactive: [4] 0.062 | barasertib 0.033 | volasertib 0.241 | [5] 0.026 | [6] -0.325 | [7] 0.024 | saracatinib 0.048 | sotrastaurin -0.085 | alvocidib 0.032 | Tubastatin A -0.082 | [9] 0.029 | [8] -0.034

BPTF (UniProt F5GXF5)
inactive: [5] -0.02 | Tubastatin A 0.089 | [2] 0.076

BNIP3L (UniProt O60238)
inactive: [1] 0.108 | sotrastaurin 0.051 | encorafenib -0.127 | [3] 0.105

BTG1 (UniProt P62324)
inactive: sotrastaurin 0.123
